Laboratory results as given in PMC6527380.
Results are given in words; binding and its absence hold for the method and conditions named. In cells and extracts the contact can be indirect. Some results given as binding are weak or reduced against the parent protein; the word gives no strength.

Protein sequences, listed by entry. Tags and fused reporters are not part of them. Residues count along the entry.
UniProt P11047, residues 34-1609: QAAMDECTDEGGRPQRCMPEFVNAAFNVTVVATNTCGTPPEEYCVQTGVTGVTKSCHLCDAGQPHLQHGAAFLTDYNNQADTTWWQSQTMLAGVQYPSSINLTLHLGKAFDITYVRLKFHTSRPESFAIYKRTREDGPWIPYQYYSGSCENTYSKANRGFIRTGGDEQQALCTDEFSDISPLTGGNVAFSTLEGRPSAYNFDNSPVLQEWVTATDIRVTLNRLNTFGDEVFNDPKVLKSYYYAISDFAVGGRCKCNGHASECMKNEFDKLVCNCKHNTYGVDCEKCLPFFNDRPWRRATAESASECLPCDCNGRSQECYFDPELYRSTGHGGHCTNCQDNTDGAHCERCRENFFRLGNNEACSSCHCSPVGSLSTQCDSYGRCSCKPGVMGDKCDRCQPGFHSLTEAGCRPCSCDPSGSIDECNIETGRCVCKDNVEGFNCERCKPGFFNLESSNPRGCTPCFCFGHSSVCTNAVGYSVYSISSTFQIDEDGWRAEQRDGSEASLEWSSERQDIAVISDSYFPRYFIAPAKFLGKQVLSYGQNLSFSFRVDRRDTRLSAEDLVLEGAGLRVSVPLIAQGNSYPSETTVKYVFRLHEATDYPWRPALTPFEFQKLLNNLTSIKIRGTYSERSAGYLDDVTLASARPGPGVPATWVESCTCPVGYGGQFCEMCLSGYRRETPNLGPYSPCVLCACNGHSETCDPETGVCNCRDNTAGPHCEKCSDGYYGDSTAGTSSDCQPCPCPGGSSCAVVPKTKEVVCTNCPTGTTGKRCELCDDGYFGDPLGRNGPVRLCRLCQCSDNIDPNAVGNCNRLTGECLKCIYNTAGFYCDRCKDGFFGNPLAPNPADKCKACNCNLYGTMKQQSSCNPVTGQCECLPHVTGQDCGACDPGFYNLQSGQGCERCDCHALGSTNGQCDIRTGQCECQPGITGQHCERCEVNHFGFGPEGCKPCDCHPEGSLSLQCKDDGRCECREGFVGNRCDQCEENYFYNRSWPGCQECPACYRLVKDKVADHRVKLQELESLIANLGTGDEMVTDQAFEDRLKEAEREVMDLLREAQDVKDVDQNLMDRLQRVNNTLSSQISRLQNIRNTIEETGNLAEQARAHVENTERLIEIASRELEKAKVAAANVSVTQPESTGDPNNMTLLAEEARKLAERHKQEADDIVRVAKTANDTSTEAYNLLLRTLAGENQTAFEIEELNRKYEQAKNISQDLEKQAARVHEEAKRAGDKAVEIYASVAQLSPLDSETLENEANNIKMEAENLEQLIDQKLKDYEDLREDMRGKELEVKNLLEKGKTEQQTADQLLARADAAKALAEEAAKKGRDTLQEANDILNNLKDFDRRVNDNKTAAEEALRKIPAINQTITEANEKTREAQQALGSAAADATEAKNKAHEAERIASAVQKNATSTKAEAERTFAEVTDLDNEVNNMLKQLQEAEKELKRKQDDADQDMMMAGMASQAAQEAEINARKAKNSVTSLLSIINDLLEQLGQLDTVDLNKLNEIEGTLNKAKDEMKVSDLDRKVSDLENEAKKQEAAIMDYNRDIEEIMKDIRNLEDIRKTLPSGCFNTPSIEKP

B1: Neogenin-1 (receptor, UniProt Q92859 34-1461)
chain: ARSGSAPQSPGASIRTFTPFYFLVEPVDTLSVRGSSVILNCSAYSEPSPKIEWKKDGTFLNLVSDDRRQLLPDGSLFISNVVHSKHNKPDEGYYQCVATVESLGTIISRTAKLIVAGLPRFTSQPEPSSVYAGNNAILNCEVNADLVPFVRWEQNRQPLLLDDRVIKLPSGMLVISNATEGDGGLYRCVVESGGPPKYSDEVELKVLPDPEVISDLVFLKQPSPLVRVIGQDVVLPCVASGLPTPTIKWMKNEEALDTESSERLVLLAGGSLEISDVTEDDAGTYFCIADNGNETIEAQAELTVQAQPEFLKQPTNIYAHESMDIVFECEVTGKPTPTVKWVKNGDMVIPSDYFKIVKEHNLQVLGLVKSDEGFYQCIAENDVGNAQAGAQLIILEHAPATTGPLPSAPRDVVASLVSTRFIKLTWRTPASDPHGDNLTYSVFYTKEGIARERVENTSHPGEMQVTIQNLMPATVYIFRVMAQNKHGSGESSAPLRVETQPEVQLPGPAPNLRAYAASPTSITVTWETPVSGNGEIQNYKLYYMEKGTDKEQDVDVSSHSYTINGLKKYTEYSFRVVAYNKHGPGVSTPDVAVRTLSDVPSAAPQNLSLEVRNSKSIMIHWQPPAPATQNGQITGYKIRYRKASRKSDVTETLVSGTQLSQLIEGLDRGTEYNFRVAALTINGTGPATDWLSAETFESDLDETRVPEVPSSLHVRPLVTSIVVSWTPPENQNIVVRGYAIGYGIGSPHAQTIKVDYKQRYYTIENLDPSSHYVITLKAFNNVGEGIPLYESAVTRPHTDTSEVDLFVINAPYTPVPDPTPMMPPVGVQASILSHDTIRITWADNSLPKHQKITDSRYYTVRWKTNIPANTKYKNANATTLSYLVTGLKPNTLYEFSVMVTKGRRSSTWSMTAHGTTFELVPTSPPKDVTVVSKEGKPKTIIVNWQPPSEANGKITGYIIYYSTDVNAEIHDWVIEPVVGNRLTHQIQELTLDTPYYFKIQARNSKGMGPMSEAVQFRTPKADSSDKMPNDQASGSGGKGSRLPDLGSDYKPPMSGSNSPHGSPTSPLDSNMLLVIIVSVGVITIVVVVIIAVFCTRRTTSHQKKKRAACKSVNGSHKYKGNSKDVKPPDLWIHHERLELKPIDKSPDPNPIMTDTPIPRNSQDITPVDNSMDSNIHQRRNSYRGHESEDSMSTLAGRRGMRPKMMMPFDSQPPQPVISAHPIHSLDNPHHHFHSSSLASPARSHLYHPGSPWPIGTSMSLSDRANSTESVRNTPSTDTMPASSSQTCCTDHQDPEGATSSSYLASSQEEDSGQSLPTAHVRPSHPLKSFAVPAIPPPGPPTYDPALPSTPLLSQQALNHHIHSVKTASIGTLGRSRPPMPVVVPSAPEVQETTRMLEDSESSYEPDELTKEMAHLEGLMKDLNAITTA

Columns and labels:
[1] = target: T1, Neogenin-1 (human (endogenous in SK-N-SH)) (UniProt Q92859); test: co-IP; endogenous proteins in SK-N-SH cell extract (20 mM Tris pH 7.4, 150 mM NaCl, 1% NP-40, protease inhibitors; 1000 μg total protein); precipitated 1 h with anti-LMγ1 (MAB1920) or anti-NEO1 (H-175) on Dynabeads protein A; Western blot against NEO1 and LMγ1
T1 sequence: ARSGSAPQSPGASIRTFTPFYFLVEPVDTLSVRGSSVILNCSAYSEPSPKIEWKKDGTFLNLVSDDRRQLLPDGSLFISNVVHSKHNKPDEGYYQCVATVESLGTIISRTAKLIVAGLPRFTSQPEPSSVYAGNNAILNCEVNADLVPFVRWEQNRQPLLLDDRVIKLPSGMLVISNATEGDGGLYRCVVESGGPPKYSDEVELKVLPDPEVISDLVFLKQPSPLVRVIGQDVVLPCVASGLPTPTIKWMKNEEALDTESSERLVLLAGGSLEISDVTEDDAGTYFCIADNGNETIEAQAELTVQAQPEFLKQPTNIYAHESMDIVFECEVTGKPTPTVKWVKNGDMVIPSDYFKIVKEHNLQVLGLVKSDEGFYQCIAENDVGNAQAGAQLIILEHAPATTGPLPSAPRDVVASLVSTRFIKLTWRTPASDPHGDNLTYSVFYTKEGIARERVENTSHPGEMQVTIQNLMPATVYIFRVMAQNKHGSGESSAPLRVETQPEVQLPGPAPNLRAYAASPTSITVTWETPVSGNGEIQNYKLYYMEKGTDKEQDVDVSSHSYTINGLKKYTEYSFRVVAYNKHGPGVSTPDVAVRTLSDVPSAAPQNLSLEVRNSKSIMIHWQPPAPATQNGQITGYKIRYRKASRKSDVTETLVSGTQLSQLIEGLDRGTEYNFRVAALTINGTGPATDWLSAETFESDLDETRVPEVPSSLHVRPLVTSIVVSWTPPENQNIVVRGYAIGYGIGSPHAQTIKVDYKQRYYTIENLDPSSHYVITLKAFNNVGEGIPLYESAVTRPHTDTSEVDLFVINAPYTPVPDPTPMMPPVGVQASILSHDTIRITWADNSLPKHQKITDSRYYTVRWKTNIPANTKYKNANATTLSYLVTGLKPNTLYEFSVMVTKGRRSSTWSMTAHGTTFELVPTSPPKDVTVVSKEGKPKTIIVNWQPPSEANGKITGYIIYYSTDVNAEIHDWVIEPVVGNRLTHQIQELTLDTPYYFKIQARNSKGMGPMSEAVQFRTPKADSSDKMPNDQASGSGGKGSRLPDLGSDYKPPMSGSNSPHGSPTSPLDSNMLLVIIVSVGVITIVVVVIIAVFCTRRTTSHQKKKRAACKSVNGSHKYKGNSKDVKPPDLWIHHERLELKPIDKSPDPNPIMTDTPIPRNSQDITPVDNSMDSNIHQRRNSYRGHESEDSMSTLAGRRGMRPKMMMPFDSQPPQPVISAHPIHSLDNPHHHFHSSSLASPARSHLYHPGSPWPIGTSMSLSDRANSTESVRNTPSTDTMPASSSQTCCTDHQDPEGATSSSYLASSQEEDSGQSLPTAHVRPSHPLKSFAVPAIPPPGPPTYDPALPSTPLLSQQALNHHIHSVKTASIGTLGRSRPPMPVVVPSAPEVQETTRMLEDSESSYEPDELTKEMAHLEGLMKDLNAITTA

[2] = target: Laminin γ1 (human (endogenous in SK-N-SH)) (UniProt P11047); test: as above

Molecule	binding [1]	binding [2]
Laminin γ1 (from UniProt P11047 34-1609)	binds	–
B1	–	binds
